# Primary screen of a compound library

Data taken from ChEMBL document CHEMBL3988442, “University of Dundee, Small-Polar-MMV Screening Library” (2021).

Results are given as percent effect.
How 0% and 100% were set is not recorded. Most values in the screen are low, and negative values occur.
This is an unselected part of the compounds tested.
A dash means the value is not listed here; it may have been measured.

Mtb growth Cornell: 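Whole-cell assay for inhibitors of Mycobacterium tuberculosis growth, labelled Cornell in the record; the read-out is not stated. The concentration is filed as 10 mM, unlikely as a test dose, so the dose is not known. Higher means stronger inhibition (inferred from two other growth screens of the library). Size under these conditions: about 53,000 compounds, about 900 of them at 50% or above in at least one test.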
Mtb heat-shock: 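Assay on Mycobacterium tuberculosis, filed only as a heat shock assay from Cornell; the read-out is not stated. The concentration is filed as 10 mM, unlikely as a test dose, so the dose is not known. Direction is inferred from retests: higher values go with stronger inhibition. About 69,000 compounds were tested under these conditions; 1.4% (about 930) showed 50% or more at least once.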

| # | compound | Mtb growth Cornell | Mtb heat-shock |
|---|---|---|---|
| 1 | `CO[C@H]1CNC[C@@H]1NC(=O)CCc1nc(-c2ccccc2)no1` | -31.22% | 19.84% |
| 2 | `O=C(O)C(F)(F)F.O=C(O)C(F)(F)F.c1cncc(C2COC3(CCN(CC4CC4)CC3)C2)c1` (centres unmarked) | -28.39% | 9.778% |
| 3 | `CS(=O)(=O)c1cc(Cl)cnc1C1CCCN(C(=O)C2CCOCC2)C1` (centres unmarked) | 18.26% | 0.9648% |
| 4 | `CC(C)(C)c1nc(CNC(=O)N2CCc3ccccc3C2CO)no1` (centres unmarked) | - | -0.8272% |
| 5 | `[H][C@@]12CCCO[C@]1([H])[C@H](OCC1CCOCC1)CN2C(=O)c1ccnnc1` | -19.74% | -1.571% |
| 6 | `COc1cccc(-c2noc(C3CCN(Cc4cn(C)nc4C)C3)n2)c1` (centres unmarked) | - | 14.99% |
| 7 | `Cc1ncsc1CNc1cc(N2CCCC2CO)ncn1` (centres unmarked) | - | -50.53% |
| 8 | `Cc1nc(CN2CCC(CNC(=O)Nc3ccccc3)CC2)oc1C` | - | -11.68% |
| 9 | `CNC(=O)Cc1noc(Cc2ccc3c(c2)CCCC3)n1` | 2.806% | -16.96% |
| 10 | `CCCc1nnc(N2CCN(c3ccccc3F)CC2)o1` | -12.77% | 17.1% |
| 11 | `CCc1ccc(OCCn2cccn2)cc1` | -6.38% | -9.756% |
| 12 | `CCC(CCNC(=O)c1cc(C2CC2)nc2c1cnn2C)n1cccn1` (centres unmarked) | 5.257% | 2.974% |
| 13 | `O=C(O)C(F)(F)F.[H][C@@]12C[C@@H](C(=O)NC)N(C)[C@]1([H])CN(C(=O)c1ccco1)C2` | 25.46% | -6.818% |
| 14 | `c1cc2c(cc1CN1CCC(Cc3noc(C4CC4)n3)CC1)OCCO2` | -17.48% | -8.767% |
| 15 | `CC(C)N(CCS(C)(=O)=O)Cc1csc(Cc2ccc(Cl)cc2)n1` | -4.147% | 17.75% |
| 16 | `Cc1ccc(C)c(SCC(=O)Nc2cccc(C(=O)N(C)C)n2)c1` | -49.82% | -27.72% |
| 17 | `Cc1ccc(-n2ccnc2)c(C(=O)NCCCN(C)C)c1` | -19.32% | -3.919% |
| 18 | `CC1CCN(C(=O)c2cn(-c3cc(N4CCSCC4)ncn3)cn2)CC1` | -8.022% | -6.752% |
| 19 | `COC(=O)C1CCN(C(=O)Cn2ccc(-c3ccsc3)n2)CC1` | 6.257% | -20.2% |
| 20 | `NCC1CCN(c2nc(C3CCCC3)nc3c2CCNCC3)C1` (centres unmarked) | -18.88% | -21.12% |
| 21 | `Cn1cccc1C(O)CNS(=O)(=O)Cc1ccccc1` (centres unmarked) | -41.72% | 23.74% |
| 22 | `CCn1cnnc1CCNC(=O)c1ccc(Br)cc1F` | 3.553% | 3.118% |
| 23 | `O=C(O)C(F)(F)F.[H][C@@]12CCN(C(=O)c3ccccc3)[C@@]1([H])CC(=O)N2CCN1CCOCC1` | -31.08% | 13.92% |
| 24 | `CCC[C@@H]1CN(C(=O)c2cc3ccccc3cc2O)C[C@H]1N(C)C` | -56.84% | -10.62% |
| 25 | `Cl.c1cc(NCc2ccncc2)nc(C2CCCN2)c1` (centres unmarked) | 38.87% | -3.309% |
| 26 | `CC(C)C1C(=O)NCCN1C(=O)CCCc1nc(C(C)(C)C)no1` (centres unmarked) | - | -162.7% |
| 27 | `Cc1ccc2c(c1)OCCCC2NCc1nccn1Cc1ccccc1` (centres unmarked) | 32.36% | 101.1% |
| 28 | `O=C(O)C(F)(F)F.O=C(O)C(F)(F)F.[H][C@@]12C[C@H](C(=O)Nc3cccnc3)CN(Cc3ccc(F)cc3)[C@]1([H])CCO2` | 11.11% | -15.36% |
| 29 | `O=C(NC1CCN(CC2CCCC2)C1)N1CCC(OCC2CC2)CC1` (centres unmarked) | 51.36% | 20.77% |
| 30 | `COCCC1COC2(CCN(C(=O)c3cccnc3)CC2)C1.O=C(O)C(F)(F)F` (centres unmarked) | 12.25% | -4.959% |
| 31 | `C[C@]1(O)CCN(Cc2cncs2)C[C@@H]1Oc1cccc(F)c1` | - | -16.67% |
| 32 | `CCC1=NOC(CNCc2cnc(-c3ccccc3C)s2)C1` (centres unmarked) | -8.634% | 12.69% |
| 33 | `[H][C@@]12CS(=O)(=O)C[C@]1([H])N(S(=O)(=O)c1ccccc1)CCN2C(=O)COC` | 21.76% | -4.121% |
| 34 | `Cl.NC[C@H]1CC[C@H](c2c(C(N)=O)sc3ccccc32)CC1` | -0.8843% | 14.63% |
| 35 | `Cc1noc(C)c1CN1CCCC1c1nnc2ccccn12` (centres unmarked) | -5.649% | -4.414% |
| 36 | `CN1CCN(CC2(O)CCCN(C(=O)Cc3cccc(O)c3)CC2)CC1` (centres unmarked) | -7.889% | -17.62% |
| 37 | `CN(CC(N)=O)C(=O)CCCn1ccc2cc(Cl)ccc21` | -10.97% | -25.47% |
| 38 | `Cc1noc(CN(CCO)Cc2cc(Br)ccc2F)n1` | 29.28% | -7.416% |
| 39 | `CCn1cnnc1CNC(=O)N(C)Cc1ccc2c(c1)OCCO2` | 4.511% | -1.631% |
| 40 | `COCC(=O)NC[C@H]1CC[C@H](c2nnc(-c3cccnc3)o2)CC1` | 3.152% | -6.861% |
| 41 | `CCCc1nc(CN2CCN(CC(O)c3ccccc3)CC2)no1` (centres unmarked) | - | -6.183% |
| 42 | `COc1cc(CNC(=O)COC2CCCCC2)ccc1O` | -5.248% | -14.76% |